Among the data in PubChem BioAssay AID1487 (National Center for Advancing Translational Sciences (NCATS), 2009) are AC50 values, retold here.

The other results are listed elsewhere or left out. The main result of the screen is listed elsewhere. These columns were measured beside it and carry no call. Most of these compounds were active or inconclusive in the main read-out, so they are no random draw. Potencies come from curve fits of mixed quality, noted in brackets.

The nature of the assay: qHTS Assay for Modulators of Lamin A Splicing. The note with it: HeLa LMNA splicing GFP/RFP minigene ratio, 48 h. The procedure, abridged:
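Read-out is the ratio of GFP to DsRed2 object intensity, acquired by 488 nm laser-scanning cytometry on HeLa lamin A-EGFP minigene reporter cells. Compound incubation 48 hrs at 37 °C in Opti-MEM with 2% FBS; DMSO 0.5% final.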
For orientation: qHTS replaces the single test concentration by a dilution series.

Setting [1] is: measured here: GFP splicing reporter channel.
The mark [2] stands for this setting: measured here: RFP viability control channel.

With `CN(C)CCNC(=O)c1ccc2c(c1)NC(=O)C(CS(=O)(=O)Cc1cccc(Br)c1)N2` (centres undefined), the AC50 (usually the concentration giving half of the maximal activity seen) reads like this: under setting [1], 0.562 µM [falling, single point]; under setting [2], 0.0178 µM [falling, full curve, poor fit].

Consider `Cc1cccc(NC(=O)c2cc3n(n2)C(C(F)(F)F)CC(c2ccc4c(c2)OCO4)N3)c1` (centres undefined), for which the AC50 under setting [2] is 4.47 µM [rising, single point].

As to `COc1ccc2cc(CN(Cc3ccco3)Cc3nnnn3C3CCCCC3)c(=O)[nH]c2c1`, the concentration at half-maximal activity (AC50) by setting is: under setting [1], 7.94 µM [rising, partial curve]; under setting [2], 11.2 µM [rising, partial curve].

In the case of `N#Cc1nc(COc2ccc(Br)cc2)oc1N1CCCC1`, the concentration at half-maximal activity (AC50) under setting [2] is 31.6 µM [rising, single point].

For `CCc1nnc(NC(=O)CSc2nnc(-c3ccccc3O)o2)s1`, the AC50 under setting [1] was 0.316 µM [falling, full curve, poor fit].

In the case of `C[C@@H](C(=O)Nc1ccc2ccccc2c1)[C@H]1C[C@]1(C)[C@H](NC(=O)c1cnccn1)c1ccccc1`, under setting [2], the half-maximal activity concentration (AC50) is 11.2 µM [rising, partial curve].

Regarding `COc1cccc(NC(=O)c2ccc(CN3CCOCC3)cc2)c1`, the AC50 under setting [2] is 14.1 µM [rising, single point].

In the case of `Cc1ccc(CCNC(=O)c2ccc3c(c2)nc2n3CCCCC2)cc1`, under setting [2], the AC50 was 0.794 µM [rising, single point].

On to `COc1ccc(S(=O)(=O)Nc2ccc(-c3ccc(N4CCCC4)nn3)cc2)cc1F`, for which the AC50 is, setting by setting: under setting [1], 0.01 µM [falling, full curve, poor fit]; under setting [2], 0.00794 µM [falling, full curve, poor fit].

With `CCOC(=O)C(NC(C)=O)(N1CCc2ccccc2C1)C(F)(F)F` (centres undefined), the AC50 under setting [2] is 35.5 µM [falling, single point].

Consider `CSc1cccc(NS(=O)(=O)c2cccc3nsnc23)c1`, for which the AC50 under setting [2] was 20 µM [rising, single point].

As for `O=C1c2ccccc2C(Nc2ccc3c(c2)OCCO3)N1Cc1ccco1` (centres undefined), the AC50 under setting [1] was 14.1 µM [rising, single point] and the AC50 under setting [2] is 22.4 µM [rising, partial curve].

In the case of `c1ccc(-c2ccc(C3=Nn4c(nnc4-c4cc(-c5ccccc5)n[nH]4)SC3)cc2)cc1`, the concentration at half-maximal activity (AC50) under setting [1] was 35.5 µM [falling, single point] and the AC50 under setting [2] is 35.5 µM [falling, single point].

`CCc1cccc(NS(=O)(=O)c2ccc3c(c2)CCC(=O)N3)c1`: the AC50 is 2.24 µM [falling, partial curve] under setting [1] and 2.51 µM [falling, partial curve] under setting [2].

As to `Cc1ccc(-c2nn3c(=O)cc(CN4CCN(C(=O)/C=C/c5ccccc5)CC4)nc3s2)cc1`, the AC50 under setting [1] is 0.501 µM [rising, partial curve, poor fit].

In the case of `CCc1ccc(-c2cn3c(n2)sc2cc(C(=O)NCCC4=CCCCC4)ccc23)cc1`, the AC50 under setting [2] is 0.02 µM [falling, full curve, poor fit].

As to `Cc1[nH]n(-c2ncc(-c3ccc(Cl)cc3)s2)c(=O)c1C(c1ccc(Cl)cc1)C(C#N)C#N` (centres undefined), the AC50 under setting [2] is 17.8 µM [rising, partial curve, poor fit].

Take `O=C(COc1ccccc1)N1CCc2ccccc21`: under setting [1], the AC50 is 12.6 µM [rising, single point].

Take `CC(C)c1ccc(NC(=O)Cn2cc(S(=O)(=O)Cc3cccc(Cl)c3)c3ccccc32)cc1`: the concentration at half-maximal activity (AC50) under setting [2] is 28.2 µM [falling, partial curve].

As to `CCCN(CCC)C(=S)Nc1cc(C(=O)OC)ccc1C(=O)OC`, the AC50 under setting [2] is 20 µM [rising, single point].

Turning to `COc1ccc(C(=O)Nc2nc3n(n2)C(c2ccccc2)C=C(c2ccccc2)N3)cc1` (centres undefined), the half-maximal activity concentration (AC50) under setting [2] is 0.1 µM [falling, partial curve].

For `O=C1CCCCC1C(=O)c1cn(-c2ccc(Cl)c(Cl)c2)nn1` (centres undefined), the AC50 under setting [1] is 0.2 µM [falling, full curve, poor fit] and the half-maximal activity concentration (AC50) under setting [2] is 15.8 µM [falling, partial curve, poor fit].

For the molecule `O=C(CP(=O)(c1ccccc1)c1ccccc1)N/N=C/c1cc(Br)cc(Br)c1O`, the AC50 under setting [2] was 12.6 µM [rising, partial curve].

Consider `Cc1c2c(n3c(nc4ccccc43)c1C#N)N(c1ccccc1)CC2`, for which, under setting [2], the AC50 is 0.251 µM [rising, full curve, poor fit].

As for `COc1ccc2c(c1OC)C(=O)OC2Nc1nc(-c2ccccc2)cs1` (centres undefined), the AC50 was 35.5 µM [falling, single point] under setting [1] and 35.5 µM [falling, single point] under setting [2].

As for `CCCCSc1nnc(CCCCCNC(=O)OC(C)(C)C)o1`, the AC50 was 12.6 µM [rising, single point] under setting [1] and 25.1 µM [rising, single point] under setting [2].

In the case of `Cc1cccc(N2CCN(C(=O)c3ccc(CS(=O)(=O)c4ccccc4C)o3)CC2C)c1` (centres undefined), the AC50 is 10 µM [rising, partial curve, poor fit] under setting [1] and 4.47 µM [rising, full curve] under setting [2].

With `O=C1S/C(=C/c2ccccc2F)C(=O)N1CCN=C1NS(=O)(=O)c2ccccc21`, the concentration at half-maximal activity (AC50) under setting [2] was 14.1 µM [rising, partial curve, poor fit].

For the molecule `CCOCCCNC(=O)c1cc(Sc2cccc(Cl)c2)nc2ccccc12`, under setting [1], the AC50 is 3.16 µM [falling, partial curve].

Consider `O=C(Nc1ccon1)c1ccc(Cl)s1`, for which the concentration at half-maximal activity (AC50) under setting [2] is 5.62 µM [rising, single point].

Take `Cc1ccc(/C=N/NC(=O)C2CC(=O)N(c3ccccc3)C2)s1` (centres undefined): the AC50 under setting [2] was 15.8 µM [rising, single point].

On to `CC(C)(C)c1ccc(C(=O)NCCC(=O)NCc2ccco2)cc1`, for which the half-maximal activity concentration (AC50) is 11.2 µM [falling, single point] under setting [1] and 11.2 µM [falling, partial curve] under setting [2].

As to `Cc1cc(O)ccc1N/C=C1\CCCC1=O`, the AC50 reads like this: under setting [1], 35.5 µM [rising, single point]; under setting [2], 35.5 µM [rising, single point].

In the case of `COC(=O)c1ccc(OCC(=O)c2ccc(C)c(C)c2)cc1`, the AC50 under setting [2] was 0.158 µM [rising, full curve, poor fit].

Regarding `Cc1ccc(OCCOc2ccc(Br)cc2)c([N+](=O)[O-])n1`, the AC50 under setting [1] was 0.794 µM [rising, partial curve] and the AC50 under setting [2] is 35.5 µM [rising, single point].

As to `Cc1ccc(CC(=O)Nc2ccc3c(c2)N(C)C(=O)c2ccccc2S3)cc1`, under setting [1], the half-maximal activity concentration (AC50) was 5.62 µM [falling, partial curve].

In the case of `C=CCOC(=O)C1=C(C)NC(SCC(=O)Nc2nccs2)=C(C#N)C1c1ccc(Cl)cc1` (centres undefined), the AC50 is 22.4 µM [falling, single point] under setting [1] and 20 µM [falling, partial curve] under setting [2].

`COCCCn1c(=NC(=O)c2ccc3c(c2)OCO3)c(C#N)cc2c(=O)n3cccc(C)c3nc21`: the AC50 under setting [1] is 17.8 µM [rising, single point] and the AC50 under setting [2] was 15.8 µM [rising, single point].

For `C(=C\c1ccccc1)/CN1CCN(C(c2ccccc2)c2ccccc2)CC1`, the AC50 under setting [2] is 0.00501 µM [falling, full curve, poor fit].

`COc1ccc(NC(=S)NNC(=O)c2cccs2)cc1`: the AC50 is, setting by setting: under setting [1], 31.6 µM [rising, single point]; under setting [2], 35.5 µM [rising, single point].

Regarding `Cc1ccc(C)c(OCCSc2nnc(C)c(=O)[nH]2)c1`, the half-maximal activity concentration (AC50) under setting [2] was 0.282 µM [rising, partial curve, poor fit].

Turning to `COc1cc2c(cc1OC)/C(=C/c1ccc(Br)cc1)C(=O)OC2`, the AC50 under setting [2] is 6.31 µM [rising, full curve, poor fit].

Take `O=C(NCc1ccccn1)C1CCN(S(=O)(=O)c2cccs2)CC1`: the AC50 is 1.12 µM [falling, full curve, poor fit] under setting [1] and 0.447 µM [falling, full curve, poor fit] under setting [2].

As to `CCN(Cc1cc2cc(C)ccc2[nH]c1=O)C(=O)c1cccc(OC)c1`, the AC50 under setting [2] is 15.8 µM [rising, single point].

On to `O=C(c1ccc(COc2c(F)c(F)cc(F)c2F)o1)N1CCN(c2ccc(Cl)cc2)CC1`, for which the AC50 under setting [2] was 11.2 µM [rising, partial curve].

For the molecule `CC(=O)N1CCN(c2ccc(NC(=O)COc3ccc(Cl)cc3Cl)cc2)CC1`, under setting [2], the AC50 is 10 µM [rising, partial curve].

For the molecule `Cc1ccc(C)c(S(=O)(=O)N2CCN(C(C)C(=O)Nc3ccccc3-c3ccccc3)CC2)c1` (centres undefined), the AC50 under setting [2] was 15.8 µM [rising, single point].

As for `O=[N+]([O-])c1ccc(COc2ncnc3ccccc23)cc1`, the AC50 under setting [1] was 0.0224 µM [falling, full curve].

On to `Clc1ccccc1-c1nnc2sc(-c3ccc(Br)o3)nn12`, for which the concentration at half-maximal activity (AC50) under setting [2] is 22.4 µM [rising, partial curve, poor fit].

As for `CCCN(CCC)CCNC(=O)C1CCCN(S(=O)(=O)c2ccc3c(c2)oc(=O)n3C)C1` (centres undefined), the AC50 under setting [2] is 5.62 µM [falling, full curve].

Consider `COCCn1c(SCc2csc(-c3ccccc3)n2)nc2ccccc21`, for which the AC50 is 15.8 µM [rising, single point] under setting [1] and 35.5 µM [rising, single point] under setting [2].

For `Fc1ccc(CN2CCc3nc(Nc4ccccc4)ncc3C2)cc1F`, the AC50 under setting [2] is 28.2 µM [falling, single point].

On to `OC(COc1ccc(Cl)c2ccccc12)CN1CCN(c2ccccn2)CC1` (centres undefined), for which the AC50 is 14.1 µM [rising, partial curve] under setting [1] and 35.5 µM [rising, single point] under setting [2].

In the case of `CN1C(=O)c2ccccc2Sc2ccc(NC(=O)COc3ccc(F)cc3)cc21`, under setting [2], the AC50 was 35.5 µM [rising, single point].

With `COc1ccc(CCNc2ncnc3c2cnn3-c2ccc(C)cc2)cc1`, the concentration at half-maximal activity (AC50) under setting [1] was 35.5 µM [falling, single point].
